Our source for the binding values is paper PMC11555385.

Chains of the proteins cited; added tags and fusions are not shown.
UniProt P07355: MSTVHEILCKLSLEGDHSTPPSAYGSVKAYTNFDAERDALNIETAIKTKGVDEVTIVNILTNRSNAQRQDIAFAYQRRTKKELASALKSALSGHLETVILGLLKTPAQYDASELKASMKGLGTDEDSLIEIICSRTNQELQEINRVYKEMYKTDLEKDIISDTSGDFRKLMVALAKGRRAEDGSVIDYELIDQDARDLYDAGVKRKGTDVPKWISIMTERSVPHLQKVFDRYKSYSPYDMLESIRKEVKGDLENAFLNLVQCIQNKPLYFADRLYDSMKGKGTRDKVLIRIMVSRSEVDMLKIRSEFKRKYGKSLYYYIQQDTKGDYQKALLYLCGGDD

For assay [1], the target named is T1, CDC25A (human (endogenous in HeLa)) (UniProt P30304).
T1 sequence: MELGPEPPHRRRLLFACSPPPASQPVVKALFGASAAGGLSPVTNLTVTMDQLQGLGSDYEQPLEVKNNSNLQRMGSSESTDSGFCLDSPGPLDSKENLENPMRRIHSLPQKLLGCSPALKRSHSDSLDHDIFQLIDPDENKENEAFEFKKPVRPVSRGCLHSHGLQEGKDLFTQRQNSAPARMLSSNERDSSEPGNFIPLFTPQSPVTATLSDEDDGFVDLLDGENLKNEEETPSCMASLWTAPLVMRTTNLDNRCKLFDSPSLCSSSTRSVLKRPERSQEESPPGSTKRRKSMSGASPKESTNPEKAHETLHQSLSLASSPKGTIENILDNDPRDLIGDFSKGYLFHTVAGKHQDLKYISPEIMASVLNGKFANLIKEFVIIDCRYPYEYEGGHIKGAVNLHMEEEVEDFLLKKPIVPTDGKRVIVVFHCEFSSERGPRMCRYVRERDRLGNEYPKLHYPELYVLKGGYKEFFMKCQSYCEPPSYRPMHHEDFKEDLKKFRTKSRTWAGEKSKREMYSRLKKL
Description: affinity purification with mass spectrometry; immunoprecipitation of CDC25A from HeLa cells (50% density and 100%+2Days groups compared), mass spectrometry of the co-precipitated proteins.

The target of assay [2] is T1, CDC25A (human (endogenous in HeLa)). Described as above. This is another data set of the same source.

Like-named read-outs stand apart in the source and are kept apart here. No constants are given. Whether binding was seen depends on the method and setting. In cells and extracts the contact can be indirect. A yes stands for co-enrichment or nearness to the bait. Other partners may have been found.

Regarding Annexin A2 (from UniProt P07355 1-339), in assay [1], the binding result was “binds”.

B1: Annexin A1 (protein, UniProt P04083 1-346)
chain: MAMVSEFLKQAWFIENEEQEYVQTVKSSKGGPGSAVSPYPTFNPSSDVAALHKAIMVKGVDEATIIDILTKRNNAQRQQIKAAYLQETGKPLDETLKKALTGHLEEVVLALLKTPAQFDADELRAAMKGLGTDEDTLIEILASRTNKEIRDINRVYREELKRDLAKDITSDTSGDFRNALLSLAKGDRSEDFGVNEDLADSDARALYEAGERRKGTDVNVFNTILTTRSYPQLRRVFQKYTKYSKHDMNKVLDLELKGDIEKCLTAIVKCATSKPAFFAEKLHQAMKGVGTRHKALIRIMVSRSEIDMNDIKAFYQKMYGISLCQAILDETKGDYEKILVALCGGN
As to B1, the binding entry in assay [2] is reported as “binds”.
